Inconclusive means that the source gave no clear call. Such entries were picked first, then a sample of the others. Potencies of inconclusive entries are doubtful fits and often do not repeat. Activity calls are given as the source filed them. Calls come from the whole dose curve; as a rule, active = well fitted activation curve with a large enough effect; inconclusive = small, poorly fitted or top-dose-only effect; inactive = no such curve, though single readings can be large or run the other way.
Experiment: qHTS assay for re-activators of p53 using a Luc reporter: Hit Validation; note: nearly all actives have a fitted effect of over 75% in size; for activation: 0% is about no effect
Conditions: p53-responsive luciferase reporter cells, luminescence, H1299 line expressing heat-sensitive Ala138Val p53; series mostly up to 46.1 µM; activation: at the top concentration
Procedure, shortened: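 Hit confirmation with a 1:5 dilution series, at 37 deg C for 24 hrs, in H1299 cells co-expressing temperature-sensitive p53-A138V and p53-responsive luciferase. Nocodazole served as control; luminescence read after 10 min with detection reagent.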
Potency is the fitted concentration of half-maximal effect.

Structure (SMILES)	Potency	activation
O=C(COC(=O)c1cccnc1Cl)Nc1ccc(N2CCCCC2)cc1	inconclusive: 29.1 µM [activator, single point]	
O=C(CNC(=O)c1cccc(F)c1)N/N=C/c1cc(Br)ccc1OC(=O)/C=C/c1ccco1	inconclusive: 36.6 µM [activator, single point]	
CCOc1ccc(NC(=O)c2cnsn2)cc1	active: 2.31 µM	
CC1CCCC(C)N1C(=O)CSc1nnc(-c2cccs2)o1 (centres undefined)	inconclusive: 0.82 µM [activator, partial curve, poor fit]	
COc1ccc2oc(C(=O)OCC(=O)NCCN3C(=O)CSC3=O)c(C)c2c1		inactive: -18.8%
CCOC(=O)c1c(C)nc(-c2ccccc2)nc1NC(=O)CC	inconclusive: 46.1 µM [activator, single point]	
O=C(Nc1nc(-c2ccco2)c(-c2ccco2)s1)c1ccc(F)cc1F	inconclusive: 29.1 µM [activator, single point]	
COc1ccccc1C(=O)CC(=O)c1ccccc1		inactive: 2.08%
Cc1ccc(-c2nc(-c3ccccc3)no2)c(Cl)c1	inconclusive: 0.0651 µM [activator, full curve, poor fit]	
Cc1cc(-n2c(C)cc(C(=O)COc3cc(F)ccc3[N+](=O)[O-])c2C)no1	inconclusive: 9.2 µM [activator, partial curve]	
CCOC(=O)c1c(NC(=O)CN2CCCc3ccccc32)sc(C)c1C	inconclusive: 58 µM [activator, partial curve, poor fit]	
Cc1ccnc(NC(=O)/C=C/c2cccs2)c1	inconclusive: 0.291 µM [activator, full curve, poor fit]	
Cc1ccc(C)c(/C=C/C(=O)c2ccccc(=O)c2O)c1	inconclusive: 46.1 µM [activator, single point]	
O=c1oc(CCO)cc2ccc(C#Cc3ccsc3)cc12	inconclusive: 5.8 µM [activator, partial curve, poor fit]	
O=C(COC(=O)c1cn(-c2ccccc2)nc1-c1ccc(F)cc1)Nc1ncc(Cl)cc1Cl		inactive: 21.9%
Nc1c(C(=O)CSc2ccccn2)c(=O)[nH]c(=O)n1C1CC1	inconclusive: 46.1 µM [activator, single point]	
O=C(Nc1ccc(NC(=O)C23CC4CC(CC(C4)C2)C3)cn1)c1ccco1	inconclusive: 5.8 µM [activator, partial curve, poor fit]	

Structure (SMILES)	Potency	activation
Cc1ccc(CSc2nc3ccncc3[nH]2)cc1		inactive: -42.2%
CN(C)CCCn1c(SCC(=O)Nc2nccs2)nnc1-c1ccncc1	inconclusive: 36.6 µM [activator, single point]	
O=C(N/N=C(\c1ccccc1)c1ccccn1)c1ccccc1Cl	inconclusive: 29.1 µM [activator, single point]	
COc1ccc2nc(Nc3nc(CSc4nc5ccccc5[nH]4)cc(=O)[nH]3)nc(C)c2c1	inconclusive: 29.1 µM [activator, single point]	
Cn1c(Cc2cccs2)nnc1SCc1nc2ccccc2[nH]1		inactive: 6.77%
CCc1nnc(NC(=O)/C=C/c2ccco2)s1	active: 20.6 µM	
Cc1ccc(/C=N/NC(=O)c2cccs2)s1	active: 5.8 µM	
CC1CCN(C(=O)c2cc(-c3ccccc3O)on2)CC1	inconclusive: 5.8 µM [activator, partial curve, poor fit]	
O=C(CSc1nnc(-c2ccc(O)cc2)o1)N1CCOCC1	inconclusive: 29.1 µM [activator, single point]	
COc1ccc(-c2nnc(SCC(=O)/C(C#N)=C(\C)N)o2)cc1	active: 0.326 µM	
Clc1ccc(-c2cn3c(n2)-c2ccccc2C3)cc1Cl	active: 10.3 µM	
CCCCn1c(O)c(N=Nc2ccccc2O)c2ccccc21		inactive: 8.33%
CC(C)C(=O)OCC(=O)Nc1ccc(N=Nc2ccccc2)cc1	active: 5.8 µM	
COc1ccccc1/C=C/C(=O)Nc1ccc2c(c1)CCC2	inconclusive: 0.461 µM [activator, partial curve, poor fit]	
CN1CCc2c(sc(NC(=O)C3COc4ccccc4O3)c2C(N)=O)C1 (centres undefined)	inconclusive: 23.1 µM [activator, single point]	
CCN(CC)C(=O)CSc1ncnc2c(-c3cccs3)nsc12		inactive: 20.3%
Cc1cccc(C)c1Nc1c(-c2ccccn2)nc2ccccn12		inactive: 14.1%

Three structures out of the list, ordered by SMILES length, rising:
Structure (SMILES)	Potency	activation
Cc1ccc(CSc2nc3ccncc3[nH]2)cc1		inactive: -42.2%
COc1ccccc1/C=C/C(=O)Nc1ccc2c(c1)CCC2	inconclusive: 0.461 µM [activator, partial curve, poor fit]	
CN(C)CCCn1c(SCC(=O)Nc2nccs2)nnc1-c1ccncc1	inconclusive: 36.6 µM [activator, single point]	
